Data as given in PubChem BioAssay AID652259 (Drosophila RNAi Screening Center, 2013).
Assay: 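Knock-downs that push a Wingless-driven reporter up or down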 (primary screen). Cells: Drosophila clone 8 imaginal disc epithelial cells. Reagent: long dsRNA against Drosophila genes. Conditions: pathway stimulated by co-transfected Wingless expression plasmid. Read-out: 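Firefly luciferase from a tcf-site Wingless reporter, measured alongside co-transfected Renilla luciferase that tracks transfection; pathway stimulated by a Wingless plasmid; the firefly-to-Renilla ratio is not deposited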. Reading the numbers: firefly reporter light: higher = more Wg reporter light, before normalisation; Renilla control light: higher = more transfected or surviving cells. Rule for the call: 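Strong candidates differ from their plate mean by at least two out of four per-plate statistical tests; weak candidates meet just one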. Calls: active = candidate regulator (raises or lowers reporter); inactive = not a candidate.
In all, the deposit lists about 22,000 reagents; below is an unselected part of those that have a named target and a result. Of all reagents, 233 (1.1%) got an active call. 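Light values are raw, unnormalised plate reads; the ratio scores behind the reporter calls were not deposited.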 Unmarked entries are inactive. Names joined by + are all predicted targets of the reagent. No sequences are given here. Not given: the amount of reagent, the time to read-out, the dose of the treatment.

| target gene | amplicon | firefly reporter light, replicate 1 | firefly reporter light, replicate 2 | Renilla control light, replicate 1 | Renilla control light, replicate 2 |
| --- | --- | --- | --- | --- | --- |
| Coq3 (Coenzyme Q3) | DRSC03168 | 7000 | – | 2105 | – |
| Orct2 (Organic cation transporter 2) | DRSC14613 | 1498 | 5405 | 856 | 1523 |
| Coq4 + frc | DRSC10381 | 5896 | – | 2692 | – |
| Coq4 + frc | DRSC10382 | 6896 | – | 3810 | – |
| ckd (cracked) | DRSC08418 | 6928 | – | 3149 | – |
| Amyrel (Amylase related) | DRSC05920 | 12202 | – | 4297 | – |
| CG42233 | DRSC14328 | 21834 | – | 15863 | – |
| CG42233 | DRSC15416 | 20992 | – | 18416 | – |
| CG15336 | DRSC18019 | 23909 | – | 9484 | – |
| CG12783 | DRSC14538 | 10291 | – | 3434 | – |
| qjt (quijote) | DRSC10060 | 6074 | – | 2044 | – |
| CG42366 | DRSC02760 | 2800 | 5528 | 626 | 1408 |
| CG42809 | DRSC02532 | 2603 | 6992 | 1081 | 2886 |
| CG32236 | DRSC08117 | 3782 | – | 1939 | – |
| Fgop2 (Fibroblast growth factor receptor 1 oncogene partner 2) | DRSC02016 | 10049 | – | 3592 | – |
| CG13893 | DRSC08363 | 4832 | – | 2451 | – |
| PCNA (Proliferating cell nuclear antigen) | DRSC07653 | 7318 | – | 2668 | – |
| CG9743 | DRSC16552 | 5347 | – | 1840 | – |
| CG34357 | DRSC12211 | 12149 | – | 3876 | – |
| CG34357 | DRSC12238 | 10619 | – | 2148 | – |
| CG34357 | DRSC12334 | 13520 | – | 4390 | – |
| CG1979 | DRSC12495 | 3428 | – | 1265 | – |
| betaNACtes2 (Nascent-associated complex beta-subunit-like, testis 2) | DRSC19792 | 13015 | – | 6893 | – |
| Rga + asRNA:ASTR | DRSC12364 | 18657 | – | 2660 | – |
| CG18231 | DRSC10307 | 7654 | – | 2487 | – |
| CG14304 | DRSC14783 | 20171 | – | 2485 | – |
| CG17105 | DRSC02574 | 2404 | 7328 | 1164 | 3561 |
| swi2 | DRSC06457 | 4475 | – | 2364 | – |
| CG34334 | DRSC20643 | 17930 | – | 8710 | – |
| SelG (Selenoprotein G) | DRSC19808 | 3307 | 10354 | 1061 | 3293 |
| Cpr65Ea (Cuticular protein 65Ea) | DRSC11027 | 1847 | 8116 | 1411 | 2818 |
| CG14196 | DRSC19551 | 13883 | – | 8372 | – |
| CG18765 | DRSC15392 | 22429 | – | 4950 | – |
| wrd (well-rounded) | DRSC16337 | 11976 | – | 626 | – |
| wrd (well-rounded) | DRSC16344 | 12130 | – | 2230 | – |
| BaraC (Baramicin C) | DRSC03885 | 14579 | – | 9430 | – |
| kud (kuduk) | DRSC11086 | 7356 | – | 2898 | – |
| CG7025 | DRSC03002 | 2281 | 6483 | 490 | 2711 |
| CG33477 | DRSC22934 | 4.87e5 | 7.19e5 | 2.32e5 | 90002 |
| CG18336 | DRSC06334 | 6888 | – | 2616 | – |
| CG14696 | DRSC14919 | 12404 | – | 3744 | – |
| RpS6 (Ribosomal protein S6) | DRSC18712 | 1728 | 4250 | 817 | 1609 |
| CG8736 | DRSC07255 | 3481 | 11052 | 1475 | 4266 |
| timeout | DRSC12950 | 2517 | – | 1130 | – |
| timeout | DRSC17078 | 15850 | – | 3531 | – |
| timeout | DRSC17079 | 17739 | – | 4635 | – |
| timeout | DRSC17080 | 14189 | – | 3884 | – |
| timeout | DRSC17081 | 15051 | – | 2165 | – |
| timeout | DRSC21535 | 5.36e5 | 5.12e5 | 2.16e5 | 2.21e5 |
| Spc25 | DRSC14164 | 20648 | – | 2733 | – |
| CG10417 | DRSC04846 | 15365 | – | 4347 | – |
| CG18171 | DRSC08524 | 4261 | – | 3264 | – |
| magu | DRSC06832 | 8229 | – | 2732 | – |
| Drsl1 (Drosomycin-like 1) | DRSC22490 | 5.47e5 | 5.39e5 | 1.90e5 | 52947 |
| Nmda1 (N-methyl-D-aspartate receptor-associated protein) | DRSC07479 | 8104 | – | 2768 | – |
| CG32650 | DRSC19899 | 2589 | 7048 | 776 | 1433 |
| dpr19 (defective proboscis extension response 19) | DRSC02237 | 1923 | 9546 | 784 | 4301 |
| CG32428 | DRSC11697 | 2009 | – | 582 | – |
| CG32428 | DRSC11768 | 12704 | – | 4757 | – |
| CG34149 | DRSC14537 | 2267 | 4356 | 1240 | 1495 |
| CG8726 | DRSC07250 | 8247 | – | 3032 | – |
| dmpd (dampened) | DRSC06092 | 8112 | – | 2759 | – |
| Mal-B2 (Maltase B2) | DRSC02417 | 4432 | – | 1312 | – |
| Gr89a (Gustatory receptor 89a) | DRSC15023 | 12774 | – | 4877 | – |
| CG32687 | DRSC18210 | 17670 | – | 10128 | – |
| CG32687 | DRSC18237 | 17453 | – | 8771 | – |
| CG12824 | DRSC06173 | 3360 | 8563 | 672 | 4535 |
| CG15126 | DRSC06548 | 8817 | – | 2936 | – |
| Ccp84Af | DRSC12591 | 10898 | – | 2970 | – |
| CG10650 | DRSC02085 | 9404 | – | 1578 | – |
| CG7342 | DRSC16230 | 2400 | 7280 | 1125 | 2185 |
| CG5973 | DRSC02918 | 13559 | – | 6006 | – |
| Pez | DRSC03397 | 1607 | 8144 | 416 | 2715 |

Reformatted: entries from further up.
CG7025 [DRSC03002]
- firefly reporter light, replicate 1: 2281
- firefly reporter light, replicate 2: 6483
- Renilla control light, replicate 1: 490
- Renilla control light, replicate 2: 2711

CG33477 [DRSC22934]
- firefly reporter light, replicate 1: 4.87e5
- firefly reporter light, replicate 2: 7.19e5
- Renilla control light, replicate 1: 2.32e5
- Renilla control light, replicate 2: 90002

CG18336 [DRSC06334]
- firefly reporter light, replicate 1: 6888
- Renilla control light, replicate 1: 2616

CG14696 [DRSC14919]
- firefly reporter light, replicate 1: 12404
- Renilla control light, replicate 1: 3744

RpS6 (Ribosomal protein S6) [DRSC18712]
- firefly reporter light, replicate 1: 1728
- firefly reporter light, replicate 2: 4250
- Renilla control light, replicate 1: 817
- Renilla control light, replicate 2: 1609

CG8736 [DRSC07255]
- firefly reporter light, replicate 1: 3481
- firefly reporter light, replicate 2: 11052
- Renilla control light, replicate 1: 1475
- Renilla control light, replicate 2: 4266
